Source: patent US9174968B2, “Pyrimidinone compounds for use in the treatment of diseases or conditions mediated by LP-PLA2” (GLAXO GROUP LIMITED, priority 2010, dated 2015)
Where a name gives a salt, the structure may show the parent alone. Some of these results come from one statement about several compounds together.

These compounds were tested against Recombinant human PLA2 VIIB (Novel Serine Dependent Lipase, NSDL) (Homo sapiens, UniProt Q99487) (assay: PLA2 VIIB assay (PED6 substrate)). Conditions: human recombinant Lp-PLA2 versus PLA2 VIIB.
Assay type: biochemical
With `CCc1c[nH]c(CCc2ccc(Oc3cccc(C(F)(F)F)c3)cc2)nc1=O` [E37, 5-ethyl-2-(4-(3-(trifluoromethyl)phenoxy)phenethyl)pyrimidin-4(1H)-one] the “selectivity between human recombinant Lp-PLA2 and PLA2 VIIB” value was at most 100 fold. With `O=c1nc(CCc2ccc(Oc3ccc(F)cc3)cc2)[nH]cc1Cc1cncnc1` [E39, 2-(4-(4-fluorophenoxy)phenethyl)-5-(pyrimidin-5-ylmethyl)pyrimidin-4(1H)-one] the “selectivity between human recombinant Lp-PLA2 and PLA2 VIIB” value was at most 100 fold. `Cn1cc(Cc2cncnc2)c(=O)nc1CCc1ccc(Oc2ccc(F)cc2)cc1` [E41, 2-(4-(4-fluorophenoxy)phenethyl)-1-methyl-5-(pyrimidin-5-ylmethyl)pyrimidin-4(1H)-one] was tested, and the “selectivity between human recombinant Lp-PLA2 and PLA2 VIIB” value was at most 100 fold. With `COc1ncc(Cc2c[nH]c(CCc3ccc(Oc4ccc(F)cc4)cc3)nc2=O)cn1` [E42, 2-(4-(4-fluorophenoxy)phenethyl)-5-((2-methoxypyrimidin-5-yl)methyl)pyrimidin-4(1H)-one] the “selectivity between human recombinant Lp-PLA2 and PLA2 VIIB” value was at most 100 fold. With `COc1ncc(Cc2cn(C)c(CCc3ccc(Oc4ccc(F)cc4)cc3)nc2=O)cn1` [E43, 2-(4-(4-fluorophenoxy)phenethyl)-5-((2-methoxypyrimidin-5-yl)methyl)-1-methylpyrimidin-4(1H)-one] the “selectivity between human recombinant Lp-PLA2 and PLA2 VIIB” value was at most 100 fold. For `Cn1cc(Cc2c[nH]c(CCc3ccc(Oc4ccc(F)cc4)cc3)nc2=O)cn1` [E44, 2-(4-(4-fluorophenoxy)phenethyl)-5-((1-methyl-1H-pyrazol-4-yl)methyl)pyrimidin-4(1H)-one], the “selectivity between human recombinant Lp-PLA2 and PLA2 VIIB” value was at most 100 fold. In the case of `Cn1cc(Cc2cn(C)c(CCc3ccc(Oc4ccc(F)cc4)cc3)nc2=O)cn1` [E45, 2-(4-(4-fluorophenoxy)phenethyl)-1-methyl-5-((1-methyl-1H-pyrazol-4-yl)methyl)pyrimidin-4(1H)-one], the “selectivity between human recombinant Lp-PLA2 and PLA2 VIIB” value is reported as at most 100 fold. For `CCc1c[nH]c(CCc2ccc(Oc3ccc(F)cc3)cc2)nc1=O` [E46, 5-ethyl-2-(4-(4-fluorophenoxy)phenethyl)pyrimidin-4(1H)-one], the “selectivity between human recombinant Lp-PLA2 and PLA2 VIIB” value was at most 100 fold. For `CCc1c[nH]c(CCc2ccc(Oc3ccc(Cl)c(C(F)(F)F)c3)cc2)nc1=O` [E47, 2-(4-(4-chloro-3-(trifluoromethyl)phenoxy)phenethyl)-5-ethylpyrimidin-4(1H)-one], the “selectivity between human recombinant Lp-PLA2 and PLA2 VIIB” value was at most 100 fold. In the case of `Cn1cc(Cc2c[nH]c(CCc3ccc(Oc4cccc(C(F)(F)F)c4)cc3)nc2=O)cn1` [E50, 5-((1-methyl-1H-pyrazol-4-yl)methyl)-2-(4-(3-(trifluoromethyl)phenoxy)phenethyl)pyrimidin-4(1H)-one], the “selectivity between human recombinant Lp-PLA2 and PLA2 VIIB” value is reported as at most 100 fold. With `Cn1c(Cc2c[nH]c(SCc3ccc(Oc4ccc(Cl)c(C(F)(F)F)c4)cc3)nc2=O)cc2ccccc21` [E67, 2-((4-(4-chloro-3-(trifluoromethyl)phenoxy)benzyl)thio)-5-((1-methyl-1H-indol-2-yl)methyl)pyrimidin-4(1H)-one] the “selectivity between human recombinant Lp-PLA2 and PLA2 VIIB” value was at most 100 fold. `O=c1nc(SCc2ccc(Oc3ccc(Cl)c(C(F)(F)F)c3)cc2)[nH]cc1CN1CCCCC1` [E69, 2-{[(4-{[4-chloro-3-(trifluoromethyl)phenyl]oxy}phenyl)methyl]thio}-5-(1-piperidinylmethyl)-4(1H)-pyrimidinone] was tested, and the “selectivity between human recombinant Lp-PLA2 and PLA2 VIIB” value was at most 100 fold. In the case of `O=c1nc(SCc2ccc(Oc3ccc(Cl)c(C(F)(F)F)c3)cc2)[nH]cc1CN1CCCC1` [E71, 2-{[(4-{[4-chloro-3-(trifluoromethyl)phenyl]oxy}phenyl)methyl]thio}-5-(1-pyrrolidinylmethyl)-4(1H)-pyrimidinone], the “selectivity between human recombinant Lp-PLA2 and PLA2 VIIB” value is reported as at most 100 fold. `COc1cc(CSc2nc(=O)c(Cc3cnn(C)c3)c[nH]2)ccc1Oc1cccc(C(F)(F)F)c1` [E102, 2-((3-methoxy-4-(3-(trifluoromethyl)phenoxy)benzyl)thio)-5-((1-methyl-1H-pyrazol-4-yl)methyl)pyrimidin-4(1H)-one] was tested, and the “selectivity between human recombinant Lp-PLA2 and PLA2 VIIB” value was at most 100 fold. With `COc1cc(CSc2nc(=O)c(Cc3cnn(C)c3)cn2C)ccc1Oc1cccc(C(F)(F)F)c1` [E103, 2-((3-methoxy-4-(3-(trifluoromethyl)phenoxy)benzyl)thio)-5-((1-methyl-1H-pyrazol-4-yl)methyl)pyrimidin-4(1H)-one, trifluoroacetic acid salt] the “selectivity between human recombinant Lp-PLA2 and PLA2 VIIB” value was at most 100 fold. In the case of `O=C(O)Cc1c[nH]c(OCCc2ccc(Oc3ccc(Cl)c(C(F)(F)F)c3)cc2)nc1=O` [E131, (2-{[2-(4-{[4-chloro-3-(trifluoromethyl)phenyl]oxy}phenyl)ethyl]oxy}-4-oxo-1,4-dihydro-5-pyrimidinyl)acetic acid], the “selectivity between human recombinant Lp-PLA2 and PLA2 VIIB” value is reported as at most 100 fold. For `CCc1c[nH]c(OCCc2ccc(Oc3ccc(C(F)(F)F)nc3)cc2)nc1=O` [E140, 5-ethyl-2-{[2-(4-{[6-(trifluoromethyl)-3-pyridinyl]oxy}phenyl)ethyl]oxy}-4(1H)-pyrimidinone], the “selectivity between human recombinant Lp-PLA2 and PLA2 VIIB” value was at most 100 fold. With `CCc1cn(C)c(OCCc2ccc(Oc3cnc(C(F)(F)F)nc3)cc2)nc1=O` [E144, 5-ethyl-1-methyl-2-(4-((2-(trifluoromethyl)pyrimidin-5-yl)oxy)phenethoxy)pyrimidin-4(1H)-one, trifluoroacetic acid salt] the “selectivity between human recombinant Lp-PLA2 and PLA2 VIIB” value was at most 100 fold. In the case of `COc1ncc(Cc2c[nH]c(OCCc3ccc(Oc4ncccn4)cc3)nc2=O)cn1` [E147, 5-((2-methoxypyrimidin-5-yl)methyl)-2-(4-(pyrimidin-2-yloxy)phenethoxy)pyrimidin-4(1H)-one], the “selectivity between human recombinant Lp-PLA2 and PLA2 VIIB” value is reported as at most 100 fold. For `Cc1cccc(Oc2ccc(CCOc3nc(=O)c(Cc4cnn(C)c4)c[nH]3)cc2)n1` [E158, 5-[(1-methyl-1H-pyrazol-4-yl)methyl]-2-[(2-{4-[(6-methyl-2-pyridinyl)oxy]phenyl}ethyl)oxy]-4(1H)-pyrimidinone], the “selectivity between human recombinant Lp-PLA2 and PLA2 VIIB” value was at most 100 fold. `CCc1c[nH]c(OCCc2ccc(Oc3cccc(C)n3)cc2)nc1=O` [E160, 5-ethyl-2-[(2-{4-[(6-methyl-2-pyridinyl)oxy]phenyl}ethyl)oxy]-4(1H)-pyrimidinone] was tested, and the “selectivity between human recombinant Lp-PLA2 and PLA2 VIIB” value was at most 100 fold. For `CCc1cn(C)c(OCCc2cc(F)c(Oc3cnc(C(F)(F)F)nc3)c(F)c2)nc1=O` [E171, 2-(3,5-difluoro-4-((2-(trifluoromethyl)pyrimidin-5-yl)oxy)phenethoxy)-5-ethyl-1-methylpyrimidin-4(1H)-one], the “selectivity between human recombinant Lp-PLA2 and PLA2 VIIB” value was at most 100 fold. In the case of `CCc1c[nH]c(OCCc2ccc(Oc3c(F)cc(Cl)cc3F)cc2)nc1=O` [E180, 2-(4-(4-chloro-2,6-difluorophenoxy)phenethoxy)-5-ethylpyrimidin-4(1H)-one], the “selectivity between human recombinant Lp-PLA2 and PLA2 VIIB” value is reported as at most 100 fold. With `Cn1cc(Cc2cncnc2)c(=O)nc1NCCc1ccc(Oc2ccc(Cl)c(C(F)(F)F)c2)cc1` [E189, 2-{2-[4-(4-Chloro-3-trifluoromethyl-phenoxy)-phenyl]-ethylamino}-1-methyl-5-pyrimidin-5-ylmethyl-1H-pyrimidin-4-one] the “selectivity between human recombinant Lp-PLA2 and PLA2 VIIB” value was at most 100 fold. In the case of `COc1ncc(Cc2c[nH]c(NCCc3ccc(Oc4ccc(F)cc4)cc3)nc2=O)cn1` [E190, 2-{2-[4-(4-fluoro-phenoxy)phenyl]-ethylamino}-5-(2-methoxy-pyrimidin-5-ylmethyl)-1H-pyrimidin-4-one], the “selectivity between human recombinant Lp-PLA2 and PLA2 VIIB” value is reported as at most 100 fold. For `CN(CCc1ccc(Oc2ccc(F)cc2)cc1)c1nc(=O)c(Cc2cncnc2)c[nH]1` [E192, 2-{2-[4-(4-fluoro-phenoxy)phenyl]-ethyl-methyl-amino}-5-pyrimidin-5-ylmethyl-1H-pyrimidin-4-one], the “selectivity between human recombinant Lp-PLA2 and PLA2 VIIB” value was at most 100 fold. `O=c1nc(NCCc2ccc(Oc3ccc(Cl)cc3)cc2)[nH]cc1Cc1cncnc1` [E194, 2-{2-[4-(4-Chloro-phenoxy)-phenyl]-ethylamino}-5-pyrimidin-5-ylmethyl-1H-pyrimidin-4-one] was tested, and the “selectivity between human recombinant Lp-PLA2 and PLA2 VIIB” value was at most 100 fold. `O=c1nc(NCCc2ccc(Oc3cccc(C(F)(F)F)c3)cc2)[nH]cc1Cc1nccs1` [E201, 5-Thiazol-2-ylmethyl-2-{2-[4-(3-trifluoromethyl-phenoxy)-phenyl]-ethylamino}-1H-pyrimidin-4-one] was tested, and the “selectivity between human recombinant Lp-PLA2 and PLA2 VIIB” value was at most 100 fold. In the case of `Cc1ncc(Cc2c[nH]c(NCCc3ccc(Oc4ccc(C(F)(F)F)cn4)cc3)nc2=O)cn1` [E208, 5-(2-methyl-pyrimidin-5-ylmethyl)-2-{2-[4-(5-trifluoromethyl-pyridin-2-yloxy)phenyl]ethylamino}-1H-pyrimidin-4-one], the “selectivity between human recombinant Lp-PLA2 and PLA2 VIIB” value is reported as at most 100 fold.
